SMILES strings stand for the structures.

For data set [1], the species on record is Rattus norvegicus. In words: Open TG-GATES - Regimen: Daily Repeat. The conditions noted are these: in vivo, po, 60 mg/kg, tissue Plasma, route gavage, dose level Middle, time 14 day. Set-up: regimen Daily Repeat, gender Male, age 6 weeks. It is filed as toxicity, organism-based, Sprague-Dawley.
For data set [2], the species on record is Rattus norvegicus. In words: Open TG-GATES - Regimen: Single. The conditions noted are these: in vivo, po, 400 mg/kg, 24 h, tissue Plasma, route gavage, dose level High. The class given is toxicity, organism-based, Sprague-Dawley. Also on record: regimen Single, gender Male, age 6 weeks.

In turn, `CC(C)Cc1ccc(C(C)C(=O)O)cc1` (configuration not stated) [IBUPROFEN] came in with a BUN in the data set listed under Rattus norvegicus [1] of 19.4 mg/dL. Moreover, the TC in the data set listed under Rattus norvegicus [2] is reported as 67.6 mg/dL.

Values taken from ChEMBL document CHEMBL3885861, “Open TG-GATES”.
